No constants are given. Whether binding was seen depends on the method and setting. Binding can be weak; no strength is given.
How the values were obtained:
[1] = target: AP-1 β1 subunit (in the AP-1 core) (UniProt Q10567); assay: cryo-EM structure
[2] = target: AP-1 γ subunit (in the AP-1 core) (UniProt P22892); assay: cryo-EM structure

Protein sequences, listed by entry. Tags and fused reporters are not part of them. Lines headed by an entry give the natural chain unless they say otherwise; changes in a name come on top. Residues count along the entry.
UniProt Q10567: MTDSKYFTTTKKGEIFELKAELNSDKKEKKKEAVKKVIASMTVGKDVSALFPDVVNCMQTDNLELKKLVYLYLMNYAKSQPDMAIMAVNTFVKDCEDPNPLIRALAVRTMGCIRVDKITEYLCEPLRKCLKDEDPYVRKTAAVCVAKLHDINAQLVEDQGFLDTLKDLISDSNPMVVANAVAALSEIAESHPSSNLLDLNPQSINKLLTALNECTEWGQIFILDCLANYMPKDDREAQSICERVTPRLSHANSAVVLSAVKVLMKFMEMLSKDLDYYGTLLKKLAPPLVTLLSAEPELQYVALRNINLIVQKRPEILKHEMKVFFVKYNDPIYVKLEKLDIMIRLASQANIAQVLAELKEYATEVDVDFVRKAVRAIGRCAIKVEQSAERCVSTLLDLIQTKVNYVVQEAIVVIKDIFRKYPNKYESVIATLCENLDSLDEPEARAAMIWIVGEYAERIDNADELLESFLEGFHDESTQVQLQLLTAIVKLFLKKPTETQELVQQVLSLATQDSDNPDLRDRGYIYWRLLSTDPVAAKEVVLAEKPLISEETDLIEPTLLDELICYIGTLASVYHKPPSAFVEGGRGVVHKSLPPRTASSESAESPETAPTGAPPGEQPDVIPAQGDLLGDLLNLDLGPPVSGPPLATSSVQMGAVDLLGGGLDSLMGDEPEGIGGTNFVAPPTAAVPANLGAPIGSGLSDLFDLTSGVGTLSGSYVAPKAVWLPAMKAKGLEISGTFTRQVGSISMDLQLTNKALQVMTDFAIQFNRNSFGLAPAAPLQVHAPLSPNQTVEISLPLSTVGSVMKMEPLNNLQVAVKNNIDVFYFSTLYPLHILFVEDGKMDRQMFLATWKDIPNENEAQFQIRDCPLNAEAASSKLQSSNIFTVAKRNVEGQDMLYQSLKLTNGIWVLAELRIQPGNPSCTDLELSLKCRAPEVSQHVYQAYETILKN
UniProt P22892: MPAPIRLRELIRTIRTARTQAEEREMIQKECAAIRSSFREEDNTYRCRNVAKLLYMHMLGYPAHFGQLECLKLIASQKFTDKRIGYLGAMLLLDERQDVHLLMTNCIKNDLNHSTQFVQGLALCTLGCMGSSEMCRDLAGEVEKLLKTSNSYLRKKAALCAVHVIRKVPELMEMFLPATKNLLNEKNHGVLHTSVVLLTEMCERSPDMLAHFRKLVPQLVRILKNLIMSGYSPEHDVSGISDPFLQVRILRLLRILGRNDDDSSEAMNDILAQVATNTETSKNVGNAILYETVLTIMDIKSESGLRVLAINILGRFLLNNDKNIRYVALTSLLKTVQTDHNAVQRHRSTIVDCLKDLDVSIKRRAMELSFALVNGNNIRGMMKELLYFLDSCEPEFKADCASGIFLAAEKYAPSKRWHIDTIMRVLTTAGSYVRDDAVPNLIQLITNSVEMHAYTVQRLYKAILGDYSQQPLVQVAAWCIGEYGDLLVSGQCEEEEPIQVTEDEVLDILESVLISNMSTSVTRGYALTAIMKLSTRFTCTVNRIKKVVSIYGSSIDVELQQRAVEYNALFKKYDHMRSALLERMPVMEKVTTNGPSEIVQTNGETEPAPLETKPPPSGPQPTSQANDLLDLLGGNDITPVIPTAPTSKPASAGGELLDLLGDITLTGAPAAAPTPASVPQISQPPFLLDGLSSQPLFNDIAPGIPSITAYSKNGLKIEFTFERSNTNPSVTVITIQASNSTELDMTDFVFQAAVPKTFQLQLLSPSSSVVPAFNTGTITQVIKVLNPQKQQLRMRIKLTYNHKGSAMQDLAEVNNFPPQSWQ
UniProt P84077, residues 17-181: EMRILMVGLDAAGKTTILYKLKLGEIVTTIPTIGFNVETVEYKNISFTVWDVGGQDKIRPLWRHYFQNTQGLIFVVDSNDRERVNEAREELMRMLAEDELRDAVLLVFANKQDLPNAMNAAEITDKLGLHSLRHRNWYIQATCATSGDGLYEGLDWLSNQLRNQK

## Arf1-GTP (from UniProt P84077 17-181)
[1]
  binding: binds
[2]
  binding: binds
